Results: patent CN105585631A
These are yes or no findings as the source states them, for the method shown.

Experiments:
HPV52 VLP (HPV52) [1] = test: SPR, BIACORE 3000
HPV52 VLP (HPV52) [2] = test: sandwich ELISA kit: 5A6 capture, 4G12-HRP detection (result of the pair of antibodies)

B1: 单克隆抗体5A6 (杂交瘤细胞株5A6, CGMCC 11299) (antibody, V domains shown)
VH: VKLQQSGAELVKPGASVKLSCTASGFNIKDTYMHWVKQRPEQGLEWIGRIDPANGNTEYDPNFQGKATITSDTSSNTAYLHLSSLTSEDTAVYYCAREVGGYYFDYWGQGTTVTVSS
VL: DIQLTQSPSSMSASLGDRITITCQATQDIVKNLNWYQQKPGKPPSFLIYYATELAEGVPSRFSGSGSGSDYSLTISNLESEDFADYYCLQFYEFPLTFGAGTKLEI
- binding (HPV52 VLP (HPV52) [1]): no binding (tested: antibody up to 20nmol/L)
- binding (HPV52 VLP (HPV52) [2]): no binding (tested: 10ug/ml VLP)
